Measurements from patent US20110207771A1, “N-(L-ALKYL-2-PHENYLETHYL)-CARBOXAMIDE DERIVATIVES AND USE THEREOF AS FUNGICIDES” (SYNGENTA CROP PROTECTION, INC., priority 2006, published 2011).
Some results were stated once for a whole list of compounds, not compound by compound.

How the values were obtained:
Type in all cases: in vivo
Podosphaera leucotricha = assay: Example B-1: action against Podosphaera leucotricha / apple (powdery mildew on apple); details: 0.02% active ingredient, spray on apple seedlings cv. McIntosh, inoculated one day after application, assessed after 12 days
Alternaria solani = assay: Example B-10: action against Alternaria solani / tomato (early blight on tomatoes); details: 0.02% active ingredient, spray on tomato plants cv. Roter Gnom, inoculated two days after application, assessed after 3 days
Uncinula necator = assay: Example B-9: action against Uncinula necator / grape (powdery mildew on grape); details: 0.02% active ingredient, spray on grape seedlings cv. Gutedel, inoculated one day after application, assessed after 7 days
Pyrenophora teres = assay: Example B-7: action against Pyrenophora teres / barley (net blotch on barley); details: 0.02% active ingredient, spray on barley plants cv. Express, inoculated two days after application, assessed 4 days after inoculation
Botrytis cinerea [1] = assay: Example B-5: action against Botrytis cinerea / grape (Botrytis on grapes); details: 0.02% active ingredient, spray on grape seedlings cv. Gutedel, inoculated two days after application, assessed after 4 days
Venturia inaequalis = assay: Example B-2: action against Venturia inaequalis / apple (scab on apple); details: 0.02% active ingredient, spray on apple seedlings cv. McIntosh, inoculated one day after application
Botrytis cinerea [2] = assay: Example B-6: action against Botrytis cinerea / tomato (Botrytis on tomatoes); details: 0.02% active ingredient, spray on tomato plants cv. Roter Gnom, inoculated two days after application, assessed after 4 days
Botrytis cinerea [3] = assay: Example B-4: action against Botrytis cinerea / apple (Botrytis on apple fruits); details: 0.02% active ingredient, 30 μl droplets in holes of apple fruit cv. Golden Delicious, assessed after 7 days
Septoria tritici = assay: Example B-8: action against Septoria tritici / wheat (Septoria leaf spot on wheat); details: 0.02% active ingredient, spray on wheat plants cv. Riband, inoculated one day after application, assessed 18 days after inoculation
Erysiphe graminis = assay: Example B-3: action against Erysiphe graminis / barley (powdery mildew on barley); details: 0.02% active ingredient, spray on barley plants cv. Express, inoculated one day after application, assessed after 6 days

Measured: infestation

CC(Cc1c(F)cc(F)cc1F)NC(=O)c1cn(C)nc1C(F)F (racemic) [Compound 1.416]
< 20%: all assays above

Cn1cc(C(=O)NCCc2ccc(Cl)c(Cl)c2)c(C(F)F)n1 [Compound 1.235]
< 20%: all assays above

CC(Cc1c(Cl)cccc1Cl)NC(=O)c1cn(C)nc1C(F)F (racemic) [Compound 1.442]
< 20%: all assays above

Cc1nc(C(F)(F)F)c(C(=O)NC(C)C(C)c2ccc(Cl)cc2Cl)s1 (racemic) [Compound 3.212]
< 20%: all assays above

Cn1cc(C(=O)NCCc2ccc(Cl)cc2Cl)c(C(F)(F)F)n1 [Compound 2.196]
< 20%: all assays above
